{
  "source": "PubChem BioAssay AID540276",
  "about": "(National Center for Advancing Translational Sciences (NCATS), 2011)",
  "note": "Among all 300,000 compounds or so, about 5,400 (1.8%) were called active. The shares of active, inactive and inconclusive entries below differ from those in the screen. Calls come from the whole dose curve; tested in HEK293 cells. Where the call is inconclusive, the potency comes from a doubtful curve fit. Potency is the fitted concentration of half-maximal effect.",
  "data": [
    {"experiment": "qHTS for inhibitors of binding or entry into cells for Marburg Virus", "conditions": "Marburg virus pseudotyped entry inhibition, cell reporter; series mostly up to 37.8 µM", "values": [
      {"compound": "CSC1=N/C(=C\\c2ccc(C)cc2)C(=O)S1", "Potency": "inconclusive: 14.1 µM [inhibitor, single point]"},
      {"compound": "Cc1oc(C)c2c(=O)cc(-c3ccc4c(c3)OCO4)cc(OC(=O)c3ccccc3Br)c12", "Potency": "inactive"},
      {"compound": "CCOc1ccc(NC(=O)CCc2nnc3ccc(N4CCN(C)CC4)nn23)cc1", "Potency": "inconclusive: 35.5 µM [activator, single point]"},
      {"compound": "CCOC(=O)NN=C1C[C@@H](O)[C@@H](O)[C@@H]2[C@H]3C(=O)N(Cc4ccc5c(c4)OCO5)C(=O)[C@@H]3CC[C@@H]12", "Potency": "inactive"},
      {"compound": "Cc1ccc(C(=O)Nc2c(C#N)c(C)c(C)n2Cc2ccccc2)cc1", "Potency": "inconclusive: 11.2 µM [inhibitor, single point]"},
      {"compound": "CCOc1cccc(C2c3c(oc4ccc(F)cc4c3=O)C(=O)N2CCc2ccc(OC)cc2)c1", "note": "(centres undefined)", "Potency": "inactive"},
      {"compound": "CCOC(=O)c1cc(C)sc1NC(=O)CSC1=NCCS1", "Potency": "inactive"},
      {"compound": "CC(CNC(=O)c1ccc2c(c1)OCO2)c1ccc([N+](=O)[O-])cc1", "note": "(centres undefined)", "Potency": "inactive"},
      {"compound": "Oc1ccc(Nc2ccnc3cc(Cl)ccc23)cc1", "Potency": "inconclusive: 10 µM [inhibitor, partial curve]"},
      {"compound": "COc1cccc(C2=NOC(C(=O)N3CCOCC3)C2)c1", "note": "(centres undefined)", "Potency": "inconclusive: 1.3 µM [activator, partial curve, poor fit]"},
      {"compound": "Cc1c(C(=O)NCC2COc3ccccc3O2)oc2ccc(S(=O)(=O)N3CC(C)CC(C)C3)cc12", "note": "(centres undefined)", "Potency": "inconclusive: 20.6 µM [inhibitor, partial curve]"},
      {"compound": "O=C(N/N=C/c1cccc(O)c1)N/N=C/c1cccc(O)c1", "Potency": "inconclusive: 35.5 µM [inhibitor, single point]"},
      {"compound": "COc1cccc(N2CCN(c3nc(C)c(C)c(=O)[nH]3)CC2)c1", "Potency": "inactive"},
      {"compound": "O=C(N/N=C\\c1cn(-c2ccccc2)nc1-c1ccccc1)c1ccc(Br)o1", "Potency": "inconclusive: 35.5 µM [inhibitor, single point]"},
      {"compound": "CCn1c(SCC(=O)Nc2cccc(NC(=O)c3cccs3)c2)nnc1-c1ccncc1", "Potency": "inconclusive: 4.47 µM [inhibitor, partial curve, poor fit]"},
      {"compound": "Cc1ccc(C2c3c(oc4ccccc4c3=O)C(=O)N2c2ccc(C)cn2)cc1", "note": "(centres undefined)", "Potency": "inconclusive: 2.82 µM [activator, full curve, poor fit]"},
      {"compound": "CCOC(=O)C(C#N)=CN1CCNc2ccccc21", "Potency": "inconclusive: 22.4 µM [inhibitor, single point]"},
      {"compound": "O=C(Nc1ccc(Cl)cc1)Nc1nnc(-c2ccncc2)s1", "Potency": "inconclusive: 3.16 µM [inhibitor, single point]"},
      {"compound": "COC(=O)/C(=C\\Nc1cccc(Cl)c1C)c1ncc(C(F)(F)F)cc1Cl", "Potency": "inconclusive: 1.26 µM [activator, single point]"},
      {"compound": "COc1ccc(OCc2nc(N)nc(Nc3ccc(C)cc3)n2)cc1", "Potency": "inconclusive: 35.5 µM [inhibitor, single point]"},
      {"compound": "CC1CCN(c2ccc3nnc(CCC(=O)NC(C)C)n3n2)CC1", "Potency": "inconclusive: 35.5 µM [activator, single point]"},
      {"compound": "CCSc1nc2sc3c(c2c(=O)[nH]1)CCCC3", "Potency": "inactive"},
      {"compound": "O=C(NC1CCCN(Cc2ccc(Cl)cc2)C1)c1cnc2ccccn2c1=O", "note": "(centres undefined)", "Potency": "inconclusive: 12.6 µM [inhibitor, partial curve]"},
      {"compound": "CCN(CCCCN1C(=O)c2ccccc2C1=O)c1ccc2c(c1)C(=O)N(C)C2=O", "Potency": "inconclusive: 18.3 µM [inhibitor, partial curve, poor fit]"},
      {"compound": "C=CCC1(CC)C(=O)NC(=S)NC1=O", "Potency": "inconclusive: 17.8 µM [activator, partial curve, poor fit]"},
      {"compound": "Oc1c(Br)cccc1/C=N/Nc1c(F)c(F)c(F)c(F)c1F", "Potency": "inconclusive: 2.82 µM [inhibitor, partial curve, poor fit]"},
      {"compound": "Cc1cc(Br)ccc1NC(=O)CCS(=O)(=O)c1cccc2nsnc12", "Potency": "inactive"},
      {"compound": "CCN(CC)C(=O)C1CCN(S(=O)(=O)c2ccc3c(c2)CCCN3C(=O)C2CCC2)CC1", "Potency": "inactive"},
      {"compound": "c1ccc(CN2CCN(c3nc4ccccc4c4ccccc34)CC2)cc1", "Potency": "inactive"},
      {"compound": "O=[N+]([O-])c1ccc(S(=O)(=O)c2cccc(C(F)(F)F)c2)nc1", "Potency": "active: 11.2 µM"},
      {"compound": "CCOC(=O)c1cnc(-n2nc(C)cc2C)nc1NNc1nc(-c2ccccc2)cc(-c2ccccc2)n1", "Potency": "inconclusive: 20 µM [inhibitor, single point]"},
      {"compound": "O=C(NCc1csc(-c2cccs2)n1)C1CCCCC1", "Potency": "inconclusive: 4.47 µM [activator, single point]"},
      {"compound": "CC(=O)O[C@]1(C(C)=O)CC[C@H]2[C@@H]3C=CC4=CC(=O)C=C[C@]4(C)[C@H]3CC[C@@]21C", "Potency": "inconclusive: 1.26 µM [activator, single point]"},
      {"compound": "CCOC(=O)c1ccc(NC(=O)C2CCCN(c3ccc(Sc4ccc(C)cc4)nn3)C2)cc1", "note": "(centres undefined)", "Potency": "inconclusive: 10 µM [inhibitor, partial curve, poor fit]"},
      {"compound": "CSc1cccc(N=C2C(=O)Nc3ccccc32)c1", "Potency": "inconclusive: 10 µM [inhibitor, partial curve]"},
      {"compound": "CC(=O)Nc1cccc(CCc2nc3ccccc3[nH]2)c1", "Potency": "inactive"},
      {"compound": "CCOP(=O)(OCC)c1nc(/C=C/c2ccccc2)oc1NCc1ccc(OC)cc1", "Potency": "inconclusive: 0.259 µM [inhibitor, partial curve, poor fit]"},
      {"compound": "Cc1ccc(Oc2ccc(NC(=O)c3ccco3)cc2)cc1", "Potency": "inconclusive: 16.4 µM [activator, partial curve]"},
      {"compound": "Cc1ccccc1-n1c(SCC(=O)N2CCN(c3ccccc3)CC2)nnc1-c1ccncc1", "Potency": "inconclusive: 1.16 µM [inhibitor, full curve]"},
      {"compound": "COc1ccccc1CNC(=O)C(CC(C)C)NS(=O)(=O)c1ccc2c(c1)oc(=O)n2C", "note": "(centres undefined)", "Potency": "inactive"},
      {"compound": "COc1ccccc1NCC(=O)NNCC(=O)Nc1ccc(F)c(Cl)c1", "Potency": "inactive"},
      {"compound": "CCc1cc(/C(Cc2csc(C)n2)=N/O)c(O)cc1O", "Potency": "inconclusive: 6.31 µM [inhibitor, full curve]"},
      {"compound": "O=C1OC(c2ccc(Br)cc2)=N/C1=C\\N1CCCCC1", "Potency": "inconclusive: 0.0366 µM [activator, full curve, poor fit]"},
      {"compound": "CCCOC(=O)c1ccc(Oc2c(-c3ccc(O)cc3O)n[nH]c2C)cc1", "Potency": "inactive"},
      {"compound": "CN(CCOc1ccc(Br)cc1)CC(O)COc1ccc(C#N)cc1", "note": "(centres undefined)", "Potency": "inconclusive: 35.5 µM [inhibitor, single point]"},
      {"compound": "Cc1ccc(N2C(=O)N(CC(=O)Nc3ccc(C)cc3C)C(=O)C2C)cc1", "note": "(centres undefined)", "Potency": "inconclusive: 35.5 µM [inhibitor, partial curve, poor fit]"},
      {"compound": "O=C(Nc1nnc(C2CC2)s1)C1Cc2ccccc2CN1S(=O)(=O)c1ccccc1F", "note": "(centres undefined)", "Potency": "inactive"},
      {"compound": "Cc1nc2ccccn2c1C(=O)NCc1ccc2c(c1)OCO2", "Potency": "inactive"},
      {"compound": "Cc1nn(C)c(C(=O)Nc2ccn(C34CC5CC(CC(C5)C3)C4)n2)c1[N+](=O)[O-]", "Potency": "inconclusive: 0.447 µM [activator, partial curve, poor fit]"},
      {"compound": "COc1ccc(N2C(=O)CCC(C(=O)N3CCCCC3)C2c2ccc(F)cc2)cc1", "note": "(centres undefined)", "Potency": "inconclusive: 0.501 µM [activator, full curve, poor fit]"},
      {"compound": "COc1cc2c(cc1O)[C@H](Cc1ccc(Oc3cc(C[C@@H]4NCCc5cc(OC)c(O)cc54)ccc3O)cc1)NCC2", "Potency": "inconclusive: 0.366 µM [inhibitor, full curve, poor fit]"},
      {"compound": "CCOC(=O)NNc1ccc2nonc2c1[N+](=O)[O-]", "Potency": "active: 11.2 µM"},
      {"compound": "CCCn1c(SCC(=O)NCc2ccco2)nc2c1c(=O)n(C)c(=O)n2C", "Potency": "inactive"},
      {"compound": "COc1ccc(CCNC(=O)CN2C(=O)COc3ccc(S(=O)(=O)N4CCOCC4)cc32)c(OC)c1", "Potency": "inconclusive: 1.41 µM [activator, partial curve, poor fit]"},
      {"compound": "CCOc1cc(-c2noc(CCCC(N)=O)n2)cc(Br)c1OC", "Potency": "inactive"},
      {"compound": "Cc1nn(-c2ccccn2)c2c1-c1nc(N)ncc1CC2", "Potency": "inactive"},
      {"compound": "COc1ccc(C=Nc2ccc3[nH]ncc3c2)c(O)c1", "Potency": "inconclusive: 15.8 µM [activator, single point]"},
      {"compound": "C=CCc1cccc(/C=N/NC(=O)CCC(=O)Nc2ccc(F)cc2)c1O", "Potency": "active: 12.6 µM"},
      {"compound": "Cc1ccc(CNC(=O)Cc2coc3cc(C)cc(C)c23)cc1", "Potency": "inconclusive: 3.16 µM [activator, partial curve, poor fit]"},
      {"compound": "O=C(Nc1ccccc1)Nc1ccc(Oc2ncnc3cc(Cl)ccc23)nc1", "Potency": "inactive"},
      {"compound": "CCOC(=O)COc1ccc2c(C#N)c3ccccn3c2c1", "Potency": "inactive"},
      {"compound": "Cc1nn(C)cc1/C=N/NC(=S)Nc1ccccc1", "Potency": "active: 7.3 µM"},
      {"compound": "Cc1ccc2oc(C(=O)N3CCN(CC(=O)NC(C)C)CC3)c(C)c2c1", "Potency": "inconclusive: 15.8 µM [activator, single point]"},
      {"compound": "Cc1cccc(C)c1OCC(O)CNC(C)c1ccccc1", "note": "(centres undefined)", "Potency": "inconclusive: 15.8 µM [inhibitor, partial curve, poor fit]"},
      {"compound": "Cc1c(C2=CCN(S(=O)(=O)c3ccc(CC(C)C)cc3)CC2)c2ccccc2n1CC(=O)N1CCCC1", "Potency": "inactive"},
      {"compound": "COc1ccc(-c2nc3c(c4c2C[C@H](c2ccccc2)OC4)CN(C(=O)Nc2cccc(C#N)c2)CC3)c(C)c1", "Potency": "inconclusive: 2.99 µM [inhibitor, single point]"},
      {"compound": "Cc1ccc(Oc2nnc(-c3ccc(C)cc3)c3ccccc23)cc1", "Potency": "inconclusive: 0.708 µM [activator, full curve]"},
      {"compound": "CSc1nc2ccccc2n1CC(=O)Nc1cc(C(F)(F)F)ccc1N1CCOCC1", "Potency": "inconclusive: 35.5 µM [inhibitor, single point]"},
      {"compound": "O=C(N/N=C/c1ccc2c(c1)OCO2)C(=O)Nc1ccccc1", "Potency": "inconclusive: 2.51 µM [activator, partial curve, poor fit]"}
    ]}
  ]
}
